Taken from: PubChem BioAssay AID504774 (Drosophila RNAi Screening Center, 2011)
In all, the deposit lists about 23,000 reagents; this is an unselected part of those that have a named target and a result. 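Values are quantile-normalised luminescence on an arbitrary scale; higher means more cells surviving MMS.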 Not all columns of the deposit are shown.

- Assay: 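Knock-downs that shift viability of MMS-exposed cells relative to untreated ones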 (primary screen)
- System: Drosophila Kc167 cells
- Reagents: long dsRNA against Drosophila genes, about 0.25 µg dsRNA per well
- Duration: about 6 days: 3 days knock-down, then 3 days with or without MMS
- Challenge: methyl methanesulphonate 0.004% (w/v) for 3 days after knock-down
- Measurement: 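Viability in wells given MMS, read as ATP luminescence, normalised by quantiles plate by plate and averaged across replicates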
- Reading the numbers: mean viability with MMS: higher = more surviving cells after MMS

Depletion of CG14115 [DRSC10118] resulted in: mean viability with MMS 3.65e6.
With knock-down of sub (subito) [DRSC06125] the results were mean viability with MMS 3.50e6.
ORMDL (Orosomucoid 1-like) [DRSC11737] gave mean viability with MMS 3.73e6.
With knock-down of rept (reptin) [DRSC11388], the screen gave mean viability with MMS 3.12e6.
After knock-down of CG31249 [DRSC16248] the results were mean viability with MMS 3.44e6.
Depletion of arx (asterix) [DRSC10386] came out at: mean viability with MMS 3.55e6.
ecd (ecdysoneless) [DRSC08574] gave mean viability with MMS 3.46e6.
For CG31370 [DRSC21453] the deposit lists mean viability with MMS 3.43e6.
With knock-down of CG34447 [DRSC00741] the results were mean viability with MMS 3.54e6.
Silencing of CG11668 [DRSC14341] gave: mean viability with MMS 3.82e6.
His-Psi:CR31754 (pseudo) [DRSC22051] gave mean viability with MMS 3.27e6.
CG33252 [DRSC19162] gave mean viability with MMS 3.50e6.
CG16952 [DRSC19759] scored mean viability with MMS 3.53e6.
Against Teh1 (tipE homolog 1) [DRSC14544], the values are mean viability with MMS 3.61e6.
CG14646 [DRSC12232] showed mean viability with MMS 3.65e6.
Silencing of CG14646 [DRSC21316] gave: mean viability with MMS 3.50e6.
For CG4751 [DRSC02776] the deposit lists mean viability with MMS 3.58e6.
Silencing of Tpst (Tyrosylprotein sulfotransferase) [DRSC18989] resulted in: mean viability with MMS 3.44e6.
Against Tpst (Tyrosylprotein sulfotransferase) [DRSC19696], the entry reads mean viability with MMS 3.55e6.
Depletion of Tpst (Tyrosylprotein sulfotransferase) [DRSC19723] resulted in: mean viability with MMS 3.66e6.
Against Tpst (Tyrosylprotein sulfotransferase) [DRSC19724], the entry reads mean viability with MMS 2.89e6.
After knock-down of Tpst (Tyrosylprotein sulfotransferase) [DRSC22621], the screen gave mean viability with MMS 2.77e6.
Knock-down of CG14913 [DRSC02397] came out at: mean viability with MMS 3.44e6.
GckIII (Germinal centre kinase III) [DRSC15729] scored mean viability with MMS 3.39e6.
For par-1 [DRSC05792], the values are mean viability with MMS 3.07e6.
Depletion of par-1 [DRSC06098] came out at: mean viability with MMS 3.53e6.
Knock-down of par-1 [DRSC06616] gave: mean viability with MMS 3.64e6.
Silencing of par-1 [DRSC07660] gave: mean viability with MMS 3.66e6.
Silencing of par-1 [DRSC07661] gave: mean viability with MMS 3.55e6.
After knock-down of CG10336 [DRSC02037], the record shows mean viability with MMS 3.48e6.
After knock-down of CG30103 [DRSC06894], the record shows mean viability with MMS 3.63e6.
CG11906 [DRSC06096] showed mean viability with MMS 3.63e6.
After knock-down of CG3045 [DRSC04331], the record shows mean viability with MMS 3.66e6.
After knock-down of Smyd3 (SET and MYND domain containing, class 3) [DRSC17744] the results were mean viability with MMS 3.52e6.
With knock-down of CG11630 [DRSC03696], the record shows mean viability with MMS 3.57e6.

In a second layout: 2 of the entries above.
gene	dsRNA	mean viability with MMS
sub (subito)	DRSC06125	3.50e6
ORMDL (Orosomucoid 1-like)	DRSC11737	3.73e6
